{"source": "paper PMC4447969", "binders": {"B1": {"name": "endogenous Pdcd4 (programmed cell death 4) (protein, UniProt Q53EL6 1-469)", "chain": "MDVENEQILNVNPADPDNLSDSLFSGDEENAGTEEIKNEINGNWISASSINEARINAKAKRRLRKNSSRDSGRGDSVSDSGSDALRSGLTVPTSPKGRLLDRRSRSGKGRGLPKKGGAGGKGVWGTPGQVYDVEEVDVKDPNYDDDQENCVYETVVLPLDERAFEKTLTPIIQEYFEHGDTNEVAEMLRDLNLGEMKSGVPVLAVSLALEGKASHREMTSKLLSDLCGTVMSTTDVEKSFDKLLKDLPELALDTPRAPQLVGQFIARAVGDGILCNTYIDSYKGTVDCVQARAALDKATVLLSMSKGGKRKDSVWGSGGGQQSVNHLVKEIDMLLKEYLLSGDISEAEHCLKELEVPHFHHELVYEAIIMVLESTGESTFKMILDLLKSLWKSSTITVDQMKRGYERIYNEIPDINLDVPHSYSVLERFVEECFQAGIISKQLRDLCPSRGRKRFVSEGDGGRLKPESY"}}, "key": {"[1]": {"target": "T1, endogenous IBtkα (human (endogenous in HeLa and HEK293T)) (UniProt Q9P2D0)", "T1 sequence": "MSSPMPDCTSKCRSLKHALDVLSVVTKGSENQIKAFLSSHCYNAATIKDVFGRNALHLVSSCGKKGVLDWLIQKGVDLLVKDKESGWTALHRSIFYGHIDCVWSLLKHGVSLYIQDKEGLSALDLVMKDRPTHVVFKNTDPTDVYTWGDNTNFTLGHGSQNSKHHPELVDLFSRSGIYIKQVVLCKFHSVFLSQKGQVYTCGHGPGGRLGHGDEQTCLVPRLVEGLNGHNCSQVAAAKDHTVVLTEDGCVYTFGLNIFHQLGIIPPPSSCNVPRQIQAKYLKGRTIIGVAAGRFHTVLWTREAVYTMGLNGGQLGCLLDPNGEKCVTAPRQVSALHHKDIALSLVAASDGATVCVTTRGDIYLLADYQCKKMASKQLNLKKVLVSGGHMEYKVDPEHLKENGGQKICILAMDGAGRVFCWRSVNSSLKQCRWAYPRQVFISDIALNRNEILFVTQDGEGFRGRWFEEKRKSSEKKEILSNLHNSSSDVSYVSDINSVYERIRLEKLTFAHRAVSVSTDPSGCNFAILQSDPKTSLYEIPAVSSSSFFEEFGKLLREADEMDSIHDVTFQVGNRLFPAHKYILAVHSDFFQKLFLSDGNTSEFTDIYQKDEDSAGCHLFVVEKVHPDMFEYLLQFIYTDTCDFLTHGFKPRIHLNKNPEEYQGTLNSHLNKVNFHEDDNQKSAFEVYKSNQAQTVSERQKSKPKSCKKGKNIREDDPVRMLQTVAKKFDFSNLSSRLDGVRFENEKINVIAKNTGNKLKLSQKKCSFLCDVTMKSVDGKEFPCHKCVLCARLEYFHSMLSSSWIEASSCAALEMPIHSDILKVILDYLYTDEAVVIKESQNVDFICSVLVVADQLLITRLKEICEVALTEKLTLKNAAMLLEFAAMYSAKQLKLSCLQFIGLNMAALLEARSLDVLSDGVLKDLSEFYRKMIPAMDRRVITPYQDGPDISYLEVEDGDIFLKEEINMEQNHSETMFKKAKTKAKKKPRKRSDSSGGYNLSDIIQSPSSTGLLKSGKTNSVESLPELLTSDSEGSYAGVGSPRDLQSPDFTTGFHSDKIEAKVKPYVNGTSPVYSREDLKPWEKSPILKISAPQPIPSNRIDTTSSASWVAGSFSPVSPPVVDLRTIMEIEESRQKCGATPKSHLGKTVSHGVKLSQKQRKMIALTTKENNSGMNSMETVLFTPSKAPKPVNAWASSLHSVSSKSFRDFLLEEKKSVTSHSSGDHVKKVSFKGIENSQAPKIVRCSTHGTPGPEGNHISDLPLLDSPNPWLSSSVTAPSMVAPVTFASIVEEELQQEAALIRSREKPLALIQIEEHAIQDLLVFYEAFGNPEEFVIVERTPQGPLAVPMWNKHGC", "experiment": "co-IP; untransfected HEK293T cells treated for 4 h with MG132 (20 μM) or vehicle; lysates immunoprecipitated with anti-IBtk or IgG antibodies, Western blot"}, "[2]": {"target": "T2, IBtkα-FLAG (human inhibitor of Bruton's tyrosine kinase isoform α, aa 1–1352) (human) (UniProt Q9P2D0)", "T2 sequence": "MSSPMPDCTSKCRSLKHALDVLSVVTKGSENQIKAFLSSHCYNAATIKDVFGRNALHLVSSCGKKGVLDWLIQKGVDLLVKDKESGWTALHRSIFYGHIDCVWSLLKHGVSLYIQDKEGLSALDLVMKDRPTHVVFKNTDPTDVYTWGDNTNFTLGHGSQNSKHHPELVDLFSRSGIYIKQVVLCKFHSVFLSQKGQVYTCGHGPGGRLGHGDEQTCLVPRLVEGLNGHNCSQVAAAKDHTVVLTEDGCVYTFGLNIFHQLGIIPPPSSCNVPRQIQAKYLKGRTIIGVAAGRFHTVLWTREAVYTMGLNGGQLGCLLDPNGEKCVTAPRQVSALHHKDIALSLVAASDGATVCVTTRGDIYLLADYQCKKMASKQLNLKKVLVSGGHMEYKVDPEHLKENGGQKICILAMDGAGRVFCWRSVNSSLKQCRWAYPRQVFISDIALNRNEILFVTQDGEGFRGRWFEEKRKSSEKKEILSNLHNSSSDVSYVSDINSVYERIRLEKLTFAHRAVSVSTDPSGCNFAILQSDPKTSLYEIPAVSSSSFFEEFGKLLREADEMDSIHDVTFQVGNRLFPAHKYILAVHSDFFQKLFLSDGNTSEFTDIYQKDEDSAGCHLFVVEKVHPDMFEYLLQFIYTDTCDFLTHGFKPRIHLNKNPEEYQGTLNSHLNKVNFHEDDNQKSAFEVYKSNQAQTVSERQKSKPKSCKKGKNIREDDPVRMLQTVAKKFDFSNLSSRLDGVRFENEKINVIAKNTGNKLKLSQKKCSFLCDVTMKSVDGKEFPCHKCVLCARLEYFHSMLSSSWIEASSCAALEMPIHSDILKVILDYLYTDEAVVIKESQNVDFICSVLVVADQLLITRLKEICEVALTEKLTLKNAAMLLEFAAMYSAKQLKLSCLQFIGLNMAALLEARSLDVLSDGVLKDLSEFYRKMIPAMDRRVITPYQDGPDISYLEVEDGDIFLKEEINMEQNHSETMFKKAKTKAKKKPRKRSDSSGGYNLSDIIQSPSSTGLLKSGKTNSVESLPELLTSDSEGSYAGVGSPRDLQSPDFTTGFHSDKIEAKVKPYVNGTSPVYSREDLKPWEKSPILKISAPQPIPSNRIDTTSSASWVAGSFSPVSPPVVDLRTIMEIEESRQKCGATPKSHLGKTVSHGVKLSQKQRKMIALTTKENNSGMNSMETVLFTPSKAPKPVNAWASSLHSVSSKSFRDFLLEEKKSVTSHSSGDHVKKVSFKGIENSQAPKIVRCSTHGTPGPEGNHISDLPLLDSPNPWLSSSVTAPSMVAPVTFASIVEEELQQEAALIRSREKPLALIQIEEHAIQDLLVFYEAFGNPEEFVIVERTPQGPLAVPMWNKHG", "experiment": "co-IP; HEK293T cells transfected with the tagged proteins, 48 h; extracts (1 mg) in RIPA buffer (50 mM Tris-HCl pH 8.0, 150 mM NaCl, 1 mM EDTA, 1% Igepal, 0.5% sodium deoxycholate) immunoprecipitated overnight with anti-FLAG or anti-Cul3 antibody, protein G beads, Western blot"}}, "note": "Results are given in words; binding and its absence hold for the method and conditions named. In cells and extracts the contact can be indirect. Some binding calls cover weakened binding; strength is not graded here. For some assays here: Sequences can lack the tags named with a protein.", "data": [{"binder": "B1", "values": [{"measurement": "binding", "setting": "[1]", "value": "binds"}, {"measurement": "binding", "setting": "[2]", "value": "binds"}]}]}
